From publication PMC12231660
Results are given in words; binding and its absence hold for the method and conditions named. In cells and extracts the contact can be indirect. Some results given as binding are weak or reduced against the parent protein; the word gives no strength.

Target: T1, Kynureninase (KYNU) (human (endogenous in Ishikawa)) (UniProt Q16719)
T1 sequence: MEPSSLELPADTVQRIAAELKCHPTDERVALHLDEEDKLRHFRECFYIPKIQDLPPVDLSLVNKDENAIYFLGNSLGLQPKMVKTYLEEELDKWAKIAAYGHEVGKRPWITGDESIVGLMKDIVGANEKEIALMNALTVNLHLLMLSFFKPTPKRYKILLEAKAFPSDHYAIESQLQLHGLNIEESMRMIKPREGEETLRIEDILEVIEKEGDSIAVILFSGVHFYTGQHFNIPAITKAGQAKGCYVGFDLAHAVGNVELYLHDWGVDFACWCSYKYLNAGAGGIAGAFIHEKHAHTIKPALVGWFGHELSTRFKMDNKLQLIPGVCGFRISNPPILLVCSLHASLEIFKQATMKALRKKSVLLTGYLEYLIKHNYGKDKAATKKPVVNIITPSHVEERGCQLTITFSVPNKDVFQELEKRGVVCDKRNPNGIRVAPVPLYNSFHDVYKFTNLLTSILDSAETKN
Experiment: co-IP; Pierce Co-IP Kit; 50 ug of antibodies against KYNU and SOD2 (normal IgG as negative control) covalently coupled to amine-reactive agarose resin; lysates of ECCs and ECSCs in IP lysis buffer incubated with the resin overnight at 4 °C; western blot

B1: superoxide dismutase 2 (SOD2) (enzyme, UniProt P04179 25-222)
chain: KHSLPDLPYDYGALEPHINAQIMQLHHSKHHAAYVNNLNVTEEKYQEALAKGDVTAQIALQPALKFNGGGHINHSIFWTNLSPNGGGEPKGELLEAIKRDFGSFDKFKEKLTAASVGVQGSGWGWLGFNKERGHLQIAACPNQDPLQGTTGLIPLLGIDVWEHAYYLQYKNVRPDYLKAIWNVINWENVTERYMACKK
Q: B1 was tested. Which binding did it give?
A: The binding was “binds”.
